Test results reported in paper PMC10238197, “Deafness‐Associated ADGRV1 Mutation Impairs USH2A Stability through Improper Phosphorylation of WHRN and WDSUB1 Recruitment” (Advanced Science, 2023).
Results are given in words; binding and its absence hold for the method and conditions named. In cells and extracts the contact can be indirect. Some results given as binding are weak or reduced against the parent protein; the word gives no strength. Tags and fused reporters may be left off the sequences shown.

Assays:
Test in all cases: FRET or BRET; intermolecular FlAsH-BRET saturation in HEK293 cells: fixed amount of WHRN-Nluc, increasing ADGRV1-FlAsH or USH2A-FlAsH; 2.5 µM FlAsH-EDT2, 5 µM coelenterazine-h; net BRET Em530/Em485
[1] = target: T1, WHRN-Nluc (Z1-L) V206A (mouse) (UniProt Q80VW5)
T1 sequence: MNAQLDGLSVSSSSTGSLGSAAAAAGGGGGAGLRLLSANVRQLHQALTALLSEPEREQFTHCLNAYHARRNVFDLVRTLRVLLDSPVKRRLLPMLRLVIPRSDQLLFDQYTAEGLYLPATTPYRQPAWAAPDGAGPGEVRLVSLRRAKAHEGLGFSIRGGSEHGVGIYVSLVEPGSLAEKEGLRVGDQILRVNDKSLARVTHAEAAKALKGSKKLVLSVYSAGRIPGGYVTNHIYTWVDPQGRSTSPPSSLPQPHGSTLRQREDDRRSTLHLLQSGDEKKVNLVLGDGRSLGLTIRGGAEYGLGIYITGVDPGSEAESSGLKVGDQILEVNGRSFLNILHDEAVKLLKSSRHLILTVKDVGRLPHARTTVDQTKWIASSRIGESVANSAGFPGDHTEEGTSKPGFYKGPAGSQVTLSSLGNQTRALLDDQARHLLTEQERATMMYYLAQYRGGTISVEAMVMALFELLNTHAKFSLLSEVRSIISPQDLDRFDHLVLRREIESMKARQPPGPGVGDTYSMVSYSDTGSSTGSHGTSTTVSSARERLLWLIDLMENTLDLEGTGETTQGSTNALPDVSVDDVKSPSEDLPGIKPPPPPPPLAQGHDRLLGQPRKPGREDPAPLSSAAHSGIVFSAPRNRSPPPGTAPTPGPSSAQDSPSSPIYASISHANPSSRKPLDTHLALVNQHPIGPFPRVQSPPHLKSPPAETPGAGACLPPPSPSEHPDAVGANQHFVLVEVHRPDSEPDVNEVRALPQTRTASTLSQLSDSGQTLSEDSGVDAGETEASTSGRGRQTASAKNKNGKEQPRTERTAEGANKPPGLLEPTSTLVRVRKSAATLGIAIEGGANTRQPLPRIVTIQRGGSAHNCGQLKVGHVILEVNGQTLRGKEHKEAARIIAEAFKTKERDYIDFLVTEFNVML

[2] = target: T2, WHRN-Nluc (Z1-L) L171A (mouse) (UniProt Q80VW5)
T2 sequence: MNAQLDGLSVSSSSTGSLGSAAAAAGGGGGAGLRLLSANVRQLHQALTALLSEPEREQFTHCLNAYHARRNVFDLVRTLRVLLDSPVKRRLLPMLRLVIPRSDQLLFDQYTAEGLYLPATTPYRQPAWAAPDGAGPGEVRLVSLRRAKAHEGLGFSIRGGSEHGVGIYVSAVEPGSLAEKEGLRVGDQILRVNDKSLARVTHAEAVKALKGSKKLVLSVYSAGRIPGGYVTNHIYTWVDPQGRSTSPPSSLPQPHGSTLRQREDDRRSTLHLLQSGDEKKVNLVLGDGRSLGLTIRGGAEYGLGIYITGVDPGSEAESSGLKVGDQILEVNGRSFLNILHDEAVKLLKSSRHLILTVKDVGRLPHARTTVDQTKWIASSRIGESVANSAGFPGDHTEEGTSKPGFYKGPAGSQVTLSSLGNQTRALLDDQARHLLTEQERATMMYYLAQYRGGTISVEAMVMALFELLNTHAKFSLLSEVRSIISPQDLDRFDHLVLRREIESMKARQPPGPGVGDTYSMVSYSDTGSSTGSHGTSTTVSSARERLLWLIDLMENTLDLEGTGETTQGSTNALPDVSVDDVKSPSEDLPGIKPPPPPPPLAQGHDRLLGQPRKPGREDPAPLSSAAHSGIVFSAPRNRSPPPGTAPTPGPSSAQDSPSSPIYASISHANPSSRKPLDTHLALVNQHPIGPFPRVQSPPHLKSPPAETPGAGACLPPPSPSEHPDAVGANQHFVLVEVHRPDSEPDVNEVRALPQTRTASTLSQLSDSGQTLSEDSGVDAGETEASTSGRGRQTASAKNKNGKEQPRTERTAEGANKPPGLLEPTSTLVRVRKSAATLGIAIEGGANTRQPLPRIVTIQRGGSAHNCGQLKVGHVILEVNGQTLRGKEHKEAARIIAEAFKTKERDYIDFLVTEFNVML

[3] = target: T3, WHRN-Nluc (Z1-L) I157A (mouse) (UniProt Q80VW5)
T3 sequence: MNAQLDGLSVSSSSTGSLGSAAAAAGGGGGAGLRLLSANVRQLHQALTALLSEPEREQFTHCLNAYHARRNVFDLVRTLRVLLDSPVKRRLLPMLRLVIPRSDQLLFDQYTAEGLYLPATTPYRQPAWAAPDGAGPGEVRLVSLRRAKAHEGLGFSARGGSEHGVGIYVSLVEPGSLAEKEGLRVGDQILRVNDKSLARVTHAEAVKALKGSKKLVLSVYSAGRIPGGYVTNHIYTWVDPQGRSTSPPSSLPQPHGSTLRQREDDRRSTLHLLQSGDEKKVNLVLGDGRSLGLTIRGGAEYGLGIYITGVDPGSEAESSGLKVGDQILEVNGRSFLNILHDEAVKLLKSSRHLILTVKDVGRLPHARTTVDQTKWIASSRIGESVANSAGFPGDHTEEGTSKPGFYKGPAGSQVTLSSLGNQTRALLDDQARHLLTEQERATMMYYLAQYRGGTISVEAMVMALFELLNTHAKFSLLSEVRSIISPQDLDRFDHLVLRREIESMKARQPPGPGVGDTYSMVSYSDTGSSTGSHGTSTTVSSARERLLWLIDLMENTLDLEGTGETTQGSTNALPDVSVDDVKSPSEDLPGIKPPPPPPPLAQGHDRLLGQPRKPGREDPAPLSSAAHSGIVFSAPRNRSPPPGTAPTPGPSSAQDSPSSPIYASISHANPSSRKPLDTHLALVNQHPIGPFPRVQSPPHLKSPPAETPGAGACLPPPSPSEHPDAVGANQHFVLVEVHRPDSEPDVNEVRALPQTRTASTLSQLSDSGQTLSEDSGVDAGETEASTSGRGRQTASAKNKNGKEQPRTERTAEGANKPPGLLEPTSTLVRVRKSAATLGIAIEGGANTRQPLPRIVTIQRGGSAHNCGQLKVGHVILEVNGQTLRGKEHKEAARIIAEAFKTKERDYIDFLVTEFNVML

binding [1]: binds
binding [2]: binds
binding [3]: binds
B1: USH2A-FlAsH (domain or fragment, UniProt Q2QI47 4819-5193)
chain: PPSGLSPPQVQTLGSRMASVHWTPPLLPNGVIHSYELQLQRACPPDSAPRCPPSHTERKYWGPGHRASLAGLQPNTAYGVQVVAYNEAGSTASGWTNFSTKKEMPQYQALFSVDSNASMVWVDWSGTFLLNGHLKEYVVTDGGRRVYSGLDTTLYIPRMVDKIFFFQVTCTTDIGSVKTPLVQYDAATGSGLVLTTPGEKKGAGTKSTEFYSELWFIMVMAVVGLILLAIFLSLILQRKIHKEPCIRERPPLVPLQKRMTPLSVYPPGETHVGLADTRLPRSGTPMSIRSSQSVSVLRIPSQSQLSHAYSQSSLHRSVSQLMDMADKKVVTEDSLWETIMGHSSGLYVDEEELMNAIKGFSSVTKEHTAFTDTHL
modifications: FlAsH-EDT2 label on the CCPGCC motif
